Experimental data from PubChem BioAssay AID248 (DTP/NCI, 2004).
The list does not hold the whole screen: it gathers tests that were run many times, whatever their T/C, doses with no T/C, and many T/C values between a quarter and a half above the control. Other doses and runs of a compound stand elsewhere. T/C: endpoint of the treated group in % of that of the vehicle group. Some entries give survivors of the animals treated and no T/C: the source holds a T/C of zero for them, seemingly a mark for toxic or unscored doses. Some doses without a T/C left all or most animals alive at the check, yet need not have been tolerated: the source hardly ever lists a survival T/C far under the control, and the zero likely stands for such cases as well. Survivors were counted at the toxicity check, usually on the fifth day, unless a day is given; later deaths do not show. Schedules are NCI's codes, read here as Q, the interval in days (D) or hours (H), X, the number of doses. Some schedules carry Z or #; the key to these is not given. Some doses were run more than once; their values stand side by side, smallest first. For survival time, the PubChem record calls one and a half times the control and up active, and a quarter to a half above the control has no call in these data; cut-offs in other NCI protocols can differ.

Test system: L1210 leukemia ip in BDF1 mice, survival T/C
Assay: NCI In Vivo Anticancer Drug Screen. Data for tumor model L1210 Leukemia (intraperitoneal) in B6D2F1 (BDF1) mice
Settings: T/C endpoint: mean survival time, higher T/C = longer survival
[1] = dose: 400.0 mg/kg/injection, schedule: Q01DX001 (ip), vehicle: saline
[2] = dose: 400.0 mg/kg/injection, schedule: Q01DX009 (ip), vehicle: Klucel (hydroxypropylcellulose) (HPC)
[3] = dose: 100.0 mg/kg/injection, schedule: Q04DX003 (ip), vehicle: Klucel (hydroxypropylcellulose) (HPC)
[4] = dose: 200.0 mg/kg/injection, schedule: Q04DX003 (ip), vehicle: Klucel (hydroxypropylcellulose) (HPC)
[5] = dose: 400.0 mg/kg/injection, schedule: Q04DX003 (ip), vehicle: Klucel (hydroxypropylcellulose) (HPC)
[6] = dose: 200.0 mg/kg/injection, schedule: Q04DX002 (ip), vehicle: Klucel (hydroxypropylcellulose) (HPC)
[7] = dose: 400.0 mg/kg/injection, schedule: Q01DX001 (ip), vehicle: Klucel (hydroxypropylcellulose) (HPC)

Q: What does the source list for `C=C(C(=O)c1ccccc1)C(NC(C)(C)C)c1ccccc1` (stereo not given)?
A: survivor count (dose: 40.0 mg/kg/injection, schedule: Q01DX001 (ip), vehicle: saline): 1 of 4; survivor count (dose: 80.0 mg/kg/injection, schedule: Q01DX001 (ip), vehicle: saline): 0 of 4; survivor count (dose: 100.0 mg/kg/injection, schedule: Q01DX001 (ip), vehicle: saline): 0 of 4; survivor count (dose: 200.0 mg/kg/injection, schedule: Q01DX001 (ip), vehicle: saline): 1 of 4; survivor count [1]: 2 of 4

Q: How did the survivor count (dose: 400.0 mg/kg/injection, schedule: Q01DX009 (ip), vehicle: saline with Tween-80) turn out when `Cc1cc(N(CCCOS(C)(=O)=O)CCCOS(C)(=O)=O)ccc1C=Nc1ccc(-c2nc(Cc3ccccc3)sc2C)cc1` was run?
A: 1 of 6

Q: How did the survivor count (dose: 200.0 mg/kg/injection, schedule: Q04DX003 (ip), vehicle: saline with Tween-80) turn out when `CCCCN(CCCC)CC(C)O` (stereo not given) was run?
A: 0 of 6

Q: What about the survivor count (dose: 400.0 mg/kg/injection, schedule: Q04DX003 (ip), vehicle: saline with Tween-80) of the same molecule?
A: 0 of 6

Q: How did the survivor count [2] turn out when `Cc1cc(C)n(CO)n1` was run?
A: 4 of 6

Q: For `CCN(CC)CC(=O)NCC(CCN1CCOCC1)(CC(C)C)c1cccc2ccccc12` (stereo not given), which survivor count (dose: 200.0 mg/kg/injection, schedule: Q01DX009 (ip), vehicle: saline) is on record?
A: 6 of 6

Q: And the survivor count (dose: 400.0 mg/kg/injection, schedule: Q04DX003 (ip), vehicle: saline)?
A: 0 of 6

Q: Which survivor count [1] does the source give for `Cc1cnc2ccccc2c1` here?
A: 0 of 4

Q: Which survivor count [2] does the source give for `O=C(Nc1cccc(F)c1)Nc1ccc(Cl)cc1Cl` here?
A: 1 of 6

Q: How did the survivor count [3] turn out when `CN1CN(c2ccccc2)C2(CCN(CCCCCCC#N)CC2)C1=O` was run?
A: 2 of 6 and 6 of 6

Q: Which T/C (dose: 100.0 mg/kg/injection, schedule: Q04DX003 (ip), vehicle: saline with Tween-80) does the source give for `CC(O)(Cc1ccccc1)c1ccccc1` (stereo not given) here?
A: 125 % of control

Q: With `Cc1nc2c(o1)CCCC2` as the molecule, how does the survivor count (dose: 400.0 mg/kg/injection, schedule: Q04DX002 (ip), vehicle: carboxymethylcellulose (CMC)) read?
A: 3 of 3

Q: Which survivor count [3] does the source give for `O=C(CBr)Nc1ccc(C(=O)O)c(O)c1` here?
A: 0 of 3

Q: And the survivor count [4]?
A: 0 of 3

Q: What about the survivor count [5] of the same molecule?
A: 0 of 3

Q: `NC(=O)N1C(=O)C=CC1=O` was tested. Which survivor count [6] did it give?
A: 1 of 3

Q: What about the survivor count [2] of the same molecule?
A: 2 of 6

Q: With `OCCSSSCCO` as the molecule, how does the survivor count (dose: 300.0 mg/kg/injection, schedule: Q01DX001 (ip), vehicle: other) read?
A: 1 of 6

Q: For `Nc1nc(Br)c(Br)nc1C(=O)O`, which T/C (dose: 50.0 mg/kg/injection, schedule: Q01DX009 (ip), vehicle: Klucel (hydroxypropylcellulose) (HPC)) is on record?
A: 127 % of control

Q: And the survivor count (dose: 100.0 mg/kg/injection, schedule: Q01DX009 (ip), vehicle: Klucel (hydroxypropylcellulose) (HPC))?
A: 3 of 6 and 3 of 3

Q: What about the survivor count (dose: 200.0 mg/kg/injection, schedule: Q01DX009 (ip), vehicle: Klucel (hydroxypropylcellulose) (HPC)) of the same molecule?
A: 0 of 3

Q: What about the survivor count [6] of the same molecule?
A: 5 of 6

Q: And the survivor count [4]?
A: 6 of 6

Q: And the survivor count [7]?
A: 0 of 6

Q: What about the survivor count (dose: 400.0 mg/kg/injection, schedule: Q04DX002 (ip), vehicle: Klucel (hydroxypropylcellulose) (HPC)) of the same molecule?
A: 0 of 6

Q: And the survivor count [5]?
A: 0 of 6

Q: With `CSc1nc([N+](C)(C)C)cc([N+](C)(C)C)n1` as the molecule, how does the survivor count (dose: 12.0 mg/kg/injection, schedule: Q01DX Z (ip), vehicle: saline) read?
A: 3 of 6

Q: And the survivor count (dose: 25.0 mg/kg/injection, schedule: Q01DX Z (ip), vehicle: saline)?
A: 0 of 6

Q: And the survivor count (dose: 50.0 mg/kg/injection, schedule: Q01DX Z (ip), vehicle: saline)?
A: 0 of 6

Q: For `O=S1(=O)CCCC1C(Cl)c1ccccc1` (stereo not given), which survivor count (dose: 200.0 mg/kg/injection, schedule: Q01DX001 (ip), vehicle: Klucel (hydroxypropylcellulose) (HPC)) is on record?
A: 2 of 6

Q: What about the survivor count [7] of the same molecule?
A: 1 of 6
